Measurements reported in article doi:10.1101/2022.08.09.503213 (bioRxiv, 2022).
These are yes or no findings as the source states them, for the method shown. Some binding calls cover weakened binding; strength is not graded here. Tags and fused reporters may be left off the sequences shown.

Amino acid sequences for entries named in this document (tags omitted).
UniProt Q96RY7, whole entry: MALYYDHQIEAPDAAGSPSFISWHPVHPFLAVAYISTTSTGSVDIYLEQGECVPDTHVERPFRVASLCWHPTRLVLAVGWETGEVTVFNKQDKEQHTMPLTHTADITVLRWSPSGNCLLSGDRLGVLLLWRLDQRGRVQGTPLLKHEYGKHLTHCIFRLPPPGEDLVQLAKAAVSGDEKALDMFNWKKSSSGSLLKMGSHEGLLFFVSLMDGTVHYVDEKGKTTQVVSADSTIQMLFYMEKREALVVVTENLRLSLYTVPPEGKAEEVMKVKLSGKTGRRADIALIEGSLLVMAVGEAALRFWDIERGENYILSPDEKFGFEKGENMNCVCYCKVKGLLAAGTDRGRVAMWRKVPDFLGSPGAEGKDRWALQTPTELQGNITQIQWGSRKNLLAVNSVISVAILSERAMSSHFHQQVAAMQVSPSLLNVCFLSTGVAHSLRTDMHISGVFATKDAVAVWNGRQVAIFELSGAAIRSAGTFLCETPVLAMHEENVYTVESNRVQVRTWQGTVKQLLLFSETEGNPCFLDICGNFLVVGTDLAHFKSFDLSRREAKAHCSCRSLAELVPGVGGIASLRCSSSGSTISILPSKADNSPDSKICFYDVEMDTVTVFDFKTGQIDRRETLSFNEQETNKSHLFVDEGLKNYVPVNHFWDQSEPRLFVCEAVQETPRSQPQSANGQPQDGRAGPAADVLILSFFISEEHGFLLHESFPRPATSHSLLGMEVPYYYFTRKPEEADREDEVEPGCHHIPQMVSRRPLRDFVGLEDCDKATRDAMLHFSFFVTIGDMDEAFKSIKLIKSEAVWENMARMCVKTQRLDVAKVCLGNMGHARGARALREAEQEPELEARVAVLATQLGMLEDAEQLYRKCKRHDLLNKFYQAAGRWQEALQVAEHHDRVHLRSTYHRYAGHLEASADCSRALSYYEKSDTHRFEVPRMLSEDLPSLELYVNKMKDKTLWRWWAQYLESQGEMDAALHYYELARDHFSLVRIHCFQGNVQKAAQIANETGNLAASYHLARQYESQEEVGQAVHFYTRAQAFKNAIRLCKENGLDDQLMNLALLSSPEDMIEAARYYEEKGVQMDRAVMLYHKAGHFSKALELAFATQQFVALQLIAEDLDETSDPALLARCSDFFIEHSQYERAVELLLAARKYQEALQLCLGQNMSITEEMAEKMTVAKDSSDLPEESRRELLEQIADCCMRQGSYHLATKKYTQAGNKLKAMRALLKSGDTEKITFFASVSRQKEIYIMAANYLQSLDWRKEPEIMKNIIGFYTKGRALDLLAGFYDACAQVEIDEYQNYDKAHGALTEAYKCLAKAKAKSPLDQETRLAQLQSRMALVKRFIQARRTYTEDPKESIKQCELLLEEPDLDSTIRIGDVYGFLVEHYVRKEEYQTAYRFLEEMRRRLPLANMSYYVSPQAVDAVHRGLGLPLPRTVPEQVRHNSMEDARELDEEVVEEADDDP

Key:
Assay in all cases: cryo-EM structure
[1] = molecular target: T1, IFT144 with C-terminal TEV site and FLAG tag (IFT144^FLAG) (human) (UniProt Q8NEZ3)
T1 sequence: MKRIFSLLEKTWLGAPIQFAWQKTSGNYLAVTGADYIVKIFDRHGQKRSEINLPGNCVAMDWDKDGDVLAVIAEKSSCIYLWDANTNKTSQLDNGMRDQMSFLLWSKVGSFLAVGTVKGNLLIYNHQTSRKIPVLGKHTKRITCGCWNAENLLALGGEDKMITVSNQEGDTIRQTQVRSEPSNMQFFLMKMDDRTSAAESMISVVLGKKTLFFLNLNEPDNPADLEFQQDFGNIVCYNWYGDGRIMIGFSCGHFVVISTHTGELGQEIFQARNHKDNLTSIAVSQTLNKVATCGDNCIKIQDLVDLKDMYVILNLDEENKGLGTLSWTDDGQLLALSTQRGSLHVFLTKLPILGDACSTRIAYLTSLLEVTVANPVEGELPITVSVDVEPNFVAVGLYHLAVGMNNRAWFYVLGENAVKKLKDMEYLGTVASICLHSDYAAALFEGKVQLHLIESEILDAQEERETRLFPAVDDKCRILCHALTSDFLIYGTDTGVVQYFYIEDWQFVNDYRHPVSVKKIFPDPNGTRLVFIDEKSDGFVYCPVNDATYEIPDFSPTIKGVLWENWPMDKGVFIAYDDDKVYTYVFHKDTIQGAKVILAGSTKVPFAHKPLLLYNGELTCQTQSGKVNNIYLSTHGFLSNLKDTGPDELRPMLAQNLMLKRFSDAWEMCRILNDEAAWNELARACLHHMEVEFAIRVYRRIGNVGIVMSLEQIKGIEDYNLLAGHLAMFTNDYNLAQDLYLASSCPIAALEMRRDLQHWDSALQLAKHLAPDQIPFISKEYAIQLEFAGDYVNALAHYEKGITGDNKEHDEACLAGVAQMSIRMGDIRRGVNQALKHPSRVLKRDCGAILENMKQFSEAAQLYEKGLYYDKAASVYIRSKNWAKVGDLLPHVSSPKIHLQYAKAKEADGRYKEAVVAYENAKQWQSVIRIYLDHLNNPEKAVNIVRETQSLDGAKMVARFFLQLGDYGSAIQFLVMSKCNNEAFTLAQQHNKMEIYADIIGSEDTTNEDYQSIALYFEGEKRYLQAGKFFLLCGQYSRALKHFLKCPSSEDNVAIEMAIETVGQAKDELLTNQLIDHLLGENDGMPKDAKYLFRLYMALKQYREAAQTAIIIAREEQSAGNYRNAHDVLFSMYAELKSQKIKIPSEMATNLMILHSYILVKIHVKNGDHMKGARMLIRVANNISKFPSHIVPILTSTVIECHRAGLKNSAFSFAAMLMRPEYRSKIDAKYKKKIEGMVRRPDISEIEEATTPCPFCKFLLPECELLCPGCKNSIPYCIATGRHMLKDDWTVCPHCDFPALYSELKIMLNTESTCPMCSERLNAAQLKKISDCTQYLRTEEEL

[2] = molecular target: IFT140 with C-terminal TEV site and Strep-tag II (IFT140^Strep) (human) (UniProt Q96RY7)
[3] = molecular target: IFT140 from ^ZZIFT140 (N-terminal ZZ-tag) (human) (UniProt Q96RY7)

Measured: binding

B1: IFT122 (untagged) (protein, UniProt Q9HBG6 1-1241)
chain: MRAVLTWRDKAEHCINDIAFKPDGTQLILAAGSRLLVYDTSDGTLLQPLKGHKDTVYCVAYAKDGKRFASGSADKSVIIWTSKLEGILKYTHNDAIQCVSYNPITHQLASCSSSDFGLWSPEQKSVSKHKSSSKIICCSWTNDGQYLALGMFNGIISIRNKNGEEKVKIERPGGSLSPIWSICWNPSSRWESFWMNRENEDAEDVIVNRYIQEIPSTLKSAVYSSQGSEAEEEEPEEEDDSPRDDNLEERNDILAVADWGQKVSFYQLSGKQIGKDRALNFDPCCISYFTKGEYILLGGSDKQVSLFTKDGVRLGTVGEQNSWVWTCQAKPDSNYVVVGCQDGTISFYQLIFSTVHGLYKDRYAYRDSMTDVIVQHLITEQKVRIKCKELVKKIAIYRNRLAIQLPEKILIYELYSEDLSDMHYRVKEKIIKKFECNLLVVCANHIILCQEKRLQCLSFSGVKEREWQMESLIRYIKVIGGPPGREGLLVGLKNGQILKIFVDNLFAIVLLKQATAVRCLDMSASRKKLAVVDENDTCLVYDIDTKELLFQEPNANSVAWNTQCEDMLCFSGGGYLNIKASTFPVHRQKLQGFVVGYNGSKIFCLHVFSISAVEVPQSAPMYQYLDRKLFKEAYQIACLGVTDTDWRELAMEALEGLDFETAKKAFIRVQDLRYLELISSIEERKKRGETNNDLFLADVFSYQGKFHEAAKLYKRSGHENLALEMYTDLCMFEYAKDFLGSGDPKETKMLITKQADWARNIKEPKAAVEMYISAGEHVKAIEICGDHGWVDMLIDIARKLDKAEREPLLLCATYLKKLDSPGYAAETYLKMGDLKSLVQLHVETQRWDEAFALGEKHPEFKDDIYMPYAQWLAENDRFEEAQKAFHKAGRQREAVQVLEQLTNNAVAESRFNDAAYYYWMLSMQCLDIAQDPAQKDTMLGKFYHFQRLAELYHGYHAIHRHTEDPFSVHRPETLFNISRFLLHSLPKDTPSGISKVKILFTLAKQSKALGAYRLARHAYDKLRGLYIPARFQKSIELGTLTIRAKPFHDSEELVPLCYRCSTNNPLLNNLGNVCINCRQPFIFSASSYDVLHLVEFYLEEGITDEEAISLIDLEVLRPKRDDRQLEIANNSSQILRLVETKDSIGDEDPFTAKLSFEQGGSEFVPVVVSRLVLRSMSRRDVLIKRWPPPLRWQYFRSLLPDASITMCPSCFQMFHSEDYELLVLQHGCCPYCRRCKDDPGP
binds: [1] | [2] | [3]
